The exact form of at least one protein or probe is not confirmed. At least one verdict was read from the data and is not stated in words by the source.
What was measured:
[1] = molecular target: PARP1 WT (UniProt P09874); assay: HXMS; details: 2.6 uM PARP1, 5 uM DNA; HXMS: 10 mM HEPES pD 7.0, 150 mM NaCl, RT; recombinant protein; residues 1-1014; protein details: N-terminal His6; folded or branched DNA
[2] = system: PARP1 WT + HPF1; assay: HXMS; details: HPF1:PARP1 1:1, faster HX in HD helices B and F; HXMS: 10 mM HEPES pD 7.0, 150 mM NaCl, RT; recombinant protein; folded or branched DNA

Sequences of proteins named here, by UniProt entry; tags and fusion partners are left off.
UniProt P09874, whole entry: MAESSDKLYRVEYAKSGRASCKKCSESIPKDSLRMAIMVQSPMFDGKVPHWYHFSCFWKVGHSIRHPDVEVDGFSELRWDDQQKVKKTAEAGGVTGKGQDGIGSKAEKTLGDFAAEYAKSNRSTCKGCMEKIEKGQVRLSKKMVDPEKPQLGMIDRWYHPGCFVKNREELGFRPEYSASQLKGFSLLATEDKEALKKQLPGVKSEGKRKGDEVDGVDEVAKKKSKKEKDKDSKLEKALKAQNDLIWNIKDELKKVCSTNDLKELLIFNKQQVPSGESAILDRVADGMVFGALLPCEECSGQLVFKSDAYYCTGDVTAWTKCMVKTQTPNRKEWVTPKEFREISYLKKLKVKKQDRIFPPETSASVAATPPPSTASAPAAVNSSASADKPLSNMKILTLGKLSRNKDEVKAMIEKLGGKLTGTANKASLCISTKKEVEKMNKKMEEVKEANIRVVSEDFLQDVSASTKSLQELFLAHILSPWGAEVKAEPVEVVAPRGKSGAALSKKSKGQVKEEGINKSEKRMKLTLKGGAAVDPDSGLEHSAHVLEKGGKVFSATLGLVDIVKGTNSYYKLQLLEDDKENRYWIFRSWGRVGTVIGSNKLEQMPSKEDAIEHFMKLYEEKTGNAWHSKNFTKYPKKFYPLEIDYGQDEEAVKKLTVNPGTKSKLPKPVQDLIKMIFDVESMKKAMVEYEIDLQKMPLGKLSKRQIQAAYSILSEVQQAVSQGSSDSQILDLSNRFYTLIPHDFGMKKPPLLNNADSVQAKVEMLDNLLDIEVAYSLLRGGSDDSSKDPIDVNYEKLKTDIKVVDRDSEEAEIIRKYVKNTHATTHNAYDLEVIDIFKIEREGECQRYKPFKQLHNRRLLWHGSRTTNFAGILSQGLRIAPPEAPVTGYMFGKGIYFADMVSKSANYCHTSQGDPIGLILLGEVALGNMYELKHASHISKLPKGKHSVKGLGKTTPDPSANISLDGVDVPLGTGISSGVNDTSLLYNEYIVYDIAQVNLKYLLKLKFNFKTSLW

“GCTGGCTTCGTAAGAAGCCAGCTCGCGGTCAGCTTGCTGACCGCG [SSB DNA (HXMS)]”: binds [1]; binds [2].
